# Experimental data: article PMC9640553
# These are yes or no findings as the source states them, for the method shown. In cells and extracts the contact can be indirect. Some entries that bind do so weakly or less than the wild type. Where a sequence is shown, tags or fusion partners need not be part of it.
# B1: SAMM50 (protein, UniProt Q8BGH2 1-469)
# chain: MGTVHARSLEPLPSSGTDFGALGEEAEFVEVEPEAKQEILENKDVVVQHVHFDGLGRTKDDIIICEIGEVFKAKNLIEVMRRSHEAREKLLRLGIFRQVDVLIDTCHGEDALPNGLDVTFEVTELRRLTGSYNTMVGNNEGSMVLGLKLPNLLGRAEKVTFQFSYGTKETSYGLSFFKPQPGNFERNFSVNLYKVTGQFPWSSLRETDRGVSAEYSFPLWKTSHTVKWEGVWRELGCLSRTASFAVRKESGHSLKSSLSHAMVIDSRNSSILPRRGALFKVNQELAGYTGGDVSFIKEDFELQLNKPLALDSVFSTSLWGGMLVPIGDKPSSIADRFYLGGPTSVRGFSMHSIGPQSEGDYLGGEAYWAGGLHLYTPLPFRPGQGGFGELFRTHFFLNAGNLCNLNYGEGPKAHIRKLAECIRWSYGAGVVLRLGNIARLELNYCIPMGVQGGDRICDGVQFGAGIRFL
# B2: BAK (protein, UniProt O08734 1-209)
# chain: MASGQGPGPPKVGCDESPSPSEQQVAQDTEEVFRSYVFYLHQQEQETQGAAAPANPEMDNLPLEPNSILGQVGRQLALIGDDINRRYDTEFQNLLEQLQPTAGNAYELFTKIASSLFKSGISWGRVVALLGFGYRLALYVYQRGLTGFLGQVTCFLADIILHHYIARWIAQRGGWVAALNFRRDPILTVMVIFGVVLLGQFVVHRFFRS
# Assays:
# ATAD3-HA [1] = biological target: T1, ATAD3-HA (UniProt Q925I1); experiment: co-IP; cells treated with EtBr (mtDNA damage) before lysis; 500 µg total protein extract in IP buffer (HEPES KOH pH 7.2, 150 mM NaCl, 1 mM MgCl2, 1% Triton), anti-V5 or anti-HA overnight at 4 °C, Protein-G agarose, western blot
# T1 sequence: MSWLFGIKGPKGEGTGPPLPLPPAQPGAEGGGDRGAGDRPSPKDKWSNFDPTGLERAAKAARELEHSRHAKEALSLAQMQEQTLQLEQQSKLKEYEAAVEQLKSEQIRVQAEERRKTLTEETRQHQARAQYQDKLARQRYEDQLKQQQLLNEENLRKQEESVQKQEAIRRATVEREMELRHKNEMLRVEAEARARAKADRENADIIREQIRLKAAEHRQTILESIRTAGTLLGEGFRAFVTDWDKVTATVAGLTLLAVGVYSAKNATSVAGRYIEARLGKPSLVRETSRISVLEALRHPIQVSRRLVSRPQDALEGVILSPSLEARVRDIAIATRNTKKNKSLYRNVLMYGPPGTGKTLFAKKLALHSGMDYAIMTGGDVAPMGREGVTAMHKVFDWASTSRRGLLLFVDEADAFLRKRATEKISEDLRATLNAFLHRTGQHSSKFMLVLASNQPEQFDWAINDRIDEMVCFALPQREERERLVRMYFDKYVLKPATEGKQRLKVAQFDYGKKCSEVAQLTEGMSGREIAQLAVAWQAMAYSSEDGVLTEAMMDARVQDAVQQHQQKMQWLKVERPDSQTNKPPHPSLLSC
# Twinkle-K320E-APEX2-V5 = biological target: T2, Twinkle-K320E-APEX2-V5 (UniProt Q8CIW5); experiment: co-IP; steady state; 500 µg total protein extract in IP buffer (HEPES KOH pH 7.2, 150 mM NaCl, 1 mM MgCl2, 1% Triton), anti-V5, anti-VPS35 or anti-HA overnight at 4 °C, Protein-G agarose, western blot
# T2 sequence: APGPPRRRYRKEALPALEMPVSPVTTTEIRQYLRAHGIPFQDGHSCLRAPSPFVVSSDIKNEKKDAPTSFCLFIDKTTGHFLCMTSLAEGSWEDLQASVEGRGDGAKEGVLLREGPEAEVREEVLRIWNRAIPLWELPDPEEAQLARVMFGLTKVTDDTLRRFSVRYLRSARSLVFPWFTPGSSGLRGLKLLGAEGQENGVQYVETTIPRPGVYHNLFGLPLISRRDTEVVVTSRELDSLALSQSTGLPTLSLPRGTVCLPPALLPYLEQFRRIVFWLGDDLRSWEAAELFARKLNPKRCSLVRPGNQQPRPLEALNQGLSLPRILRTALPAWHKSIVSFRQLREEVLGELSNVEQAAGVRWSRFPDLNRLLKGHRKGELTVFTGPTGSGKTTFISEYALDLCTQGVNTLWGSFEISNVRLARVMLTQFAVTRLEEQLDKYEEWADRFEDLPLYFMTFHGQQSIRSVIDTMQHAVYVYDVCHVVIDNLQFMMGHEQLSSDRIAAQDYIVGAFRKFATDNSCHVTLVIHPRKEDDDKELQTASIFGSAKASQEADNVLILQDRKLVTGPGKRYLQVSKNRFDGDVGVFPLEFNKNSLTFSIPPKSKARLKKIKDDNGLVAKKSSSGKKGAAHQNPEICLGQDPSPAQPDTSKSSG
# ATAD3-HA [2] = biological target: T1, ATAD3-HA; experiment: as above
# SAMM50-HA = biological target: T3, SAMM50-HA (UniProt Q8BGH2); experiment: as above
# T3 sequence: B1 chain
Binder,binding (ATAD3-HA [1]),binding (Twinkle-K320E-APEX2-V5),binding (ATAD3-HA [2]),binding (SAMM50-HA)
B1,no binding (condition: cells treated with EtBr),binds,binds,
B2,,,,binds
